Measurements published in PubChem BioAssay AID652054 (National Center for Advancing Translational Sciences (NCATS), 2013).
About 9,100 (2.5%) of roughly 360,000 compounds were called active. The shares of active, inactive and inconclusive entries below differ from those in the screen. No stated cut-off is given here; in the data, active means max response below about -50%; inconclusive means no clear call, values can overlap the other calls; inactive means above that.

The chains behind the UniProt entries cited, without tags or fusion partners.
UniProt P35462, whole entry, looked up: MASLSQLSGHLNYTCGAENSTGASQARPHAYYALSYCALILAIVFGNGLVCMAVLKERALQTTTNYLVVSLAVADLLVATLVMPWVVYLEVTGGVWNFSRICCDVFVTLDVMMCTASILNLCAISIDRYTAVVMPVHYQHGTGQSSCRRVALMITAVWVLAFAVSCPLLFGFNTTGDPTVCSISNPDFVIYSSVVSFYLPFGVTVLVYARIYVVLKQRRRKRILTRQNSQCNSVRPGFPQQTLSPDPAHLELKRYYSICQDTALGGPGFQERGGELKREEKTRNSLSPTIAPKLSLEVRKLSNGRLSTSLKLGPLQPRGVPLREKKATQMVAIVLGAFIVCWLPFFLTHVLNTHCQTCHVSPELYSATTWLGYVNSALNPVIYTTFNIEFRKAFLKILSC

What follows are compounds tested against D(3) dopamine receptor (Homo sapiens) (UniProt P35462) (assay: qHTS of D3 Dopamine Receptor Antagonist: qHTS). Conditions: D3R cells, DiscoveRx beta-arrestin luminescence, antagonist mode; active compounds read low.
Summary of the method: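 Cells expressing the human receptor were seeded at 1500 cells/well, incubated overnight at 37 degrees C in 5% CO2, then exposed to library compounds with dopamine controls for 90 minutes at 37 degrees C before luminescent detection.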
On the % scale 0 is the no-effect control and ±100 the full control effect.

SMILES | max response, negative = inhibition
O=C1OCCN1CCN(CN1C(=O)CCC1=O)CN1C(=O)CCC1=O | active: -56.8%
O=C(Oc1ccccc1)Oc1ccc2c(c1)oc(=O)c1ccccc12 | inconclusive: -37%
CN1CCN(c2ncccc2S(=O)(=O)N2CCCCC2)CC1 | active: -67.2%
CCN1CCN(c2ncnc3c2nnn3Cc2ccccc2)CC1 | inconclusive: -41.3%
CCS(=O)(=O)NCc1cn2c(C)csc2n1 | inconclusive: -40%
CCCc1[nH]nc2c1C(Cc1ccccc1)C(C#N)=C(N)O2 (centres undefined) | inactive: -25.1%
CCOCc1nnc(NC(=O)c2ccc(OC)cc2)s1 | inconclusive: -37.6%
COc1cccc(/C=N/Nc2ncccc2[N+](=O)[O-])c1OC | inconclusive: -34%
Cc1cc(NC(=O)COC(=O)[C@H](Cc2c[nH]c3ccccc23)NC(=O)c2ccc(F)cc2)no1 | active: -50.5%
Cc1ccc(S(=O)(=O)Nc2cc(-c3ccccc3)nn2C)cc1Cl | inactive: -20.5%
O=[N+]([O-])c1ccc(S(=O)(=O)N2CCN(Cc3ccco3)CC2)cc1 | inconclusive: -38.1%
CCN(CC)S(=O)(=O)c1ccc(N/N=C(\C)c2ccc3c(c2)OCO3)c([N+](=O)[O-])c1 | inconclusive: -37.1%
COc1ccc(-c2ccc(C(C)=O)cc2)cc1[C@H]1[C@@H]2C=CCC[C@@]2(C)C(=O)N1Cc1ccccc1 | inconclusive: -34.2%
CC#CCN(Cc1ccco1)C(=O)c1ccc(OC2CCN(Cc3ccccn3)CC2)cc1 | inconclusive: -36.6%
OCC[C@H]1C[C@H](O)[C@@H](O)[C@]2(Cc3ccccc3O2)O1 | active: -67.8%
COc1ccc(C2Nc3ccc(Br)cc3C(c3ccccc3)N2CC(=O)O)cc1 (centres undefined) | inconclusive: -49.1%
O=C(Nc1ccc(F)c(F)c1)c1ccc(-n2cncn2)c([N+](=O)[O-])c1 | inactive: -9.16%
O=C(NC(=S)N1CCN(c2ccc([N+](=O)[O-])cc2)CC1)c1ccccc1F | inactive: -24.3%
COC(=O)c1cc(OC)c(OC)cc1NC(=S)Nc1cccc(Cl)c1 | active: -65.8%
Cc1ccc(S(=O)(=O)N(CC(=O)Nc2cccc([N+](=O)[O-])c2)C2CCCCC2)cc1 | inconclusive: -33.1%
COc1ccc(CN2CCCN(C)CC2)c(OC)c1C | inactive: -18.6%
CCC1(C)Cc2c(sc3c2c(=O)n(C)c2nnc(SCCc4ccccc4)n32)CO1 (centres undefined) | inconclusive: -39.2%
CN(C)S(=O)(=O)N1CCN(c2cccc(Cl)c2)CC1 | inconclusive: -31.8%
CN(CC(=O)Nc1ccc(S(N)(=O)=O)cc1)Cc1ccccc1F | inconclusive: -30.3%

Sorted by SMILES length (low to high): three of the compounds above.
SMILES | max response, negative = inhibition
CCOCc1nnc(NC(=O)c2ccc(OC)cc2)s1 | inconclusive: -37.6%
Cc1ccc(S(=O)(=O)Nc2cc(-c3ccccc3)nn2C)cc1Cl | inactive: -20.5%
CCN(CC)S(=O)(=O)c1ccc(N/N=C(\C)c2ccc3c(c2)OCO3)c([N+](=O)[O-])c1 | inconclusive: -37.1%
